Experimental data taken from publication PMC7708039, “Tethering-facilitated DNA ‘opening’ and complementary roles of β-hairpin motifs in the Rad4/XPC DNA damage sensor protein”.
These are yes or no findings as the source states them, for the method shown. Some entries that bind do so weakly or less than the wild type.

Legend:
[1] = biological target: T1, Rad4 Δβ-hairpin2, crosslinkable construct <SC40> (residues 101–632, lacking 515–527, V131C/C132S), thrombin-digested (yeast) (UniProt P14736); assay: crystal structure; Rad4 mutant–Rad23 complex disulfide-tethered to CCC/GGG matched DNA; hanging-drop vapor diffusion at 4°C, 50 mM BTP-HCl, 150–180 mM NaCl, 5–15% isopropanol, pH 6.8; molecular replacement with the protein portion of 4YIR; both purified
T1 sequence (chain, Cys131 disulfide-crosslinked to the dG* of the CCC/GGG DNA): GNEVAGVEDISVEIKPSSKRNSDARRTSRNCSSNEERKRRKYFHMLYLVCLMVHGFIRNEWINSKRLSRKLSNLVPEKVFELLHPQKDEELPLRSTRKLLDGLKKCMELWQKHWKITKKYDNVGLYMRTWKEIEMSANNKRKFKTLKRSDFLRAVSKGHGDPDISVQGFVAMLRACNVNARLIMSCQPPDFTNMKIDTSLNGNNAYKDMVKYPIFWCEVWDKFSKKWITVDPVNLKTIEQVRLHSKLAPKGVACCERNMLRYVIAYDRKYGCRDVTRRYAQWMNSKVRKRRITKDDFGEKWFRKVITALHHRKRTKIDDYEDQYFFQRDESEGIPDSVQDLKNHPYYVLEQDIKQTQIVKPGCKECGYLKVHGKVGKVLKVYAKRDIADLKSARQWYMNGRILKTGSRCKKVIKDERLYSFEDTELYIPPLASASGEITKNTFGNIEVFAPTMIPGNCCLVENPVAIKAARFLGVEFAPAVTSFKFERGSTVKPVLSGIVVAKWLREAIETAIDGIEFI

[2] = biological target: T2, Rad4 Δβ-hairpin3, crosslinkable construct <SC41b> (residues 101–632, lacking 599–605, V131C/C132S), thrombin-digested (yeast) (UniProt P14736); assay: as above
T2 sequence (chain, Cys131 disulfide-crosslinked to the dG* of the CCC/GGG DNA): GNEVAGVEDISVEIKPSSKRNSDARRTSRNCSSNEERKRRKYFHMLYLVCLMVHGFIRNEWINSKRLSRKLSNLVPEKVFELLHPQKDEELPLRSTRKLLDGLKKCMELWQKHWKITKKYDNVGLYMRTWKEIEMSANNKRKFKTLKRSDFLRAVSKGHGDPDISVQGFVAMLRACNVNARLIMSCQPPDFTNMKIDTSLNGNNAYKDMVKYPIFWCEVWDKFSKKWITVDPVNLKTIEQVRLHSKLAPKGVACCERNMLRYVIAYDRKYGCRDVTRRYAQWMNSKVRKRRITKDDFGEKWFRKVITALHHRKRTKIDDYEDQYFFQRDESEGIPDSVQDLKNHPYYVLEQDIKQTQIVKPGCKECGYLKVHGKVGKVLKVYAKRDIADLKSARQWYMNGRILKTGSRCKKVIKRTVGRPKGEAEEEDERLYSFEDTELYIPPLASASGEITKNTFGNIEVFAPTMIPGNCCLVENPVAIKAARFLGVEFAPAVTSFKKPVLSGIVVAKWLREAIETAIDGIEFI

binding [1]: binds
binding [2]: binds
B1: Rad23 construct after thrombin digestion (Rad4-binding and UBA2 domains; UBL domain removed) (domain or fragment, UniProt P32628 230-398)
chain: GNASSGALGTTGGATDAAQGGPPGSIGLTVEDLLSLRQVVSGNPEALAPLLENISARYPQLREHIMANPEVFVSMLLEAVGDNMQDVMEGADDMVEGEDIEVTGEAAAAGLGQGEGEGSFQVDYTPEDDQAISRLCELGFERDLVIQVYFACDKNEEAAANILFSDHAD
